Measurements as given in patent publication US20210115153A1 (PEPTRON, published 2021).
These are yes or no findings as the source states them, for the method shown. Some binding calls cover weakened binding; strength is not graded here.

The chains behind the UniProt entries cited, without tags or fusion partners. Where a name states a change or a piece, a line headed by the entry shows the natural chain unless it says otherwise.
UniProt P15941: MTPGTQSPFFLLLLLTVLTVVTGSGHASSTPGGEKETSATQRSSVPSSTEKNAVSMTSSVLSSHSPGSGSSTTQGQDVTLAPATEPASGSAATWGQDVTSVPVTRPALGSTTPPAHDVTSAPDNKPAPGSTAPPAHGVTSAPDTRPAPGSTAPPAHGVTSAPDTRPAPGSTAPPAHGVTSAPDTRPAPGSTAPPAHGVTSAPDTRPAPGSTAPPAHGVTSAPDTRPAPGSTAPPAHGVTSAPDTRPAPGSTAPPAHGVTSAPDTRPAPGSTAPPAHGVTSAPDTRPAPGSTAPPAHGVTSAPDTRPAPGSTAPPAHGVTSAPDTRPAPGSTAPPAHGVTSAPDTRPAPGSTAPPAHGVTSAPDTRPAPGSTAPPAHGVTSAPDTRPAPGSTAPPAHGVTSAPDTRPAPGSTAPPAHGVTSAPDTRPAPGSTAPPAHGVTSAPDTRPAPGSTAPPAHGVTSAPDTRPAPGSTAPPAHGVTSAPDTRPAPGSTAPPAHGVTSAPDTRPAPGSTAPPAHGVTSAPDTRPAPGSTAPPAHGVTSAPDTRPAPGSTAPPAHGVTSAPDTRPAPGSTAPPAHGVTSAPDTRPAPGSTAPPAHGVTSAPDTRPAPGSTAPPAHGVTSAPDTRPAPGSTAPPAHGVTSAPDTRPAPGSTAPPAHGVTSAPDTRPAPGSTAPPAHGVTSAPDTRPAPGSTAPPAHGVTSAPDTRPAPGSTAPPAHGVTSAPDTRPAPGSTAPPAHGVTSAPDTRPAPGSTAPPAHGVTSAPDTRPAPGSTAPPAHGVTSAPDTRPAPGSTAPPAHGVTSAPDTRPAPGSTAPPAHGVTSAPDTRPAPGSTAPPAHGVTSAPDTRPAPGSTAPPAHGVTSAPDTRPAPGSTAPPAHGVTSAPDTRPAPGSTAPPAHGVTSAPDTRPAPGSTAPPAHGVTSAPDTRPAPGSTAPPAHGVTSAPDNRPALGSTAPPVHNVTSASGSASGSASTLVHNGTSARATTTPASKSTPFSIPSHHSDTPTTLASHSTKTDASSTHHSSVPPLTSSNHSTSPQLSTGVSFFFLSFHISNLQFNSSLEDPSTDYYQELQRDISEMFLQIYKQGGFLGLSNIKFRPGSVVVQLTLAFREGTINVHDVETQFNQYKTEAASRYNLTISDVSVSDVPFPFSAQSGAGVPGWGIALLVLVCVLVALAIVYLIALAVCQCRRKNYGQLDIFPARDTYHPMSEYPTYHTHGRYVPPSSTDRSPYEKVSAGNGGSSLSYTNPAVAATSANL

Molecular target: MBP-hMUC1-C protein (human) (UniProt P15941)
Assay: competitive ELISA on coated MBP-hMUC1-C, competitor biotin-labelled G3 at 50 nM

B1: anti-hMUC1 monoclonal antibody purified from hybridoma hMUC1-1H7 (KCLRF-BP-00395) (antibody, V domains shown)
VH: EVQLQQSGAELAKPGASVKMSCKVSGYTFTSYWMHWVKQRPGQGLEWIGYINPGTGYIEYNQKFKDKATLTADKSSSTAYMQLSSLTSEDSAVYYCASSTAPFDYWGQGTTLTVSS
VL: DIVITQSPSSMYASLGERVTITCKASQDIKSYLSWYQQKPWKSPKTLIYYATRLADGVPSRFSGSGSGQDYSLTISSLESDDTATYYCLQYDESPYTFGGGTKLEIKR
notes: also called anti-hMUC1 antibody; anti-hMUC1-C mouse antibody (1H7)
  binding: binds
